US20250079000A1, “METHODS AND MARKERS FOR DIAGNOSIS OF PARKINSON'S DISEASE” (Berg LLC, priority 2021, published 2025)
Entries after “also recorded” stand apart in the source; their conditions may differ.

Test: Metabolic stability assessment of biomarkers in healthy control subjects
Design: species or system human
Settings: for Change of metabolite over five consecutive days: Monday through Friday, 7 AM, fasting; for Change of metabolite over the course of a day: five time points (7 AM to 7 PM), without fasting

Structure (SMILES) | Change of metabolite over five consecutive days (listed as methylsuccinate) | Change of metabolite over the course of a day (listed as methylsuccinate) | Change of metabolite over five consecutive days | Change of metabolite over five consecutive days (listed as N-acetylputerscine) | Change of metabolite over the course of a day | Change of metabolite over the course of a day (listed as N-acetylputerscine)
CC(CC(=O)O)C(=O)O (stereo not drawn) [MSA, Methylsuccinic acid] | did not change; also recorded: do not change | did not change; also recorded: do not change | – | – | – | –
CC(=O)NCCCCN [NAP, N-acetyl putrescine] | – | – | do not change | did not change | do not change | did not change
